From PubChem BioAssay AID1487 (National Center for Advancing Translational Sciences (NCATS), 2009)
“And” between values parts separate entries of the source, which are not always exact repeats. Equal values may be shown once. This is one part of the list. Shown are side measurements of this screen, not its main read-out; they come without a call. The list favours compounds with an active or inconclusive main result. The note in brackets gives the kind of curve behind each potency; many fits are weak.

Experiment: qHTS Assay for Modulators of Lamin A Splicing
Settings: HeLa LMNA splicing GFP/RFP minigene ratio, 48 h
Summary of the method: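 Read-out is the ratio of GFP to DsRed2 object intensity, acquired by 488 nm laser-scanning cytometry on HeLa lamin A-EGFP minigene reporter cells. Compound incubation 48 hrs at 37 °C in Opti-MEM with 2% FBS; DMSO 0.5% final.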

[1] = measured here: GFP splicing reporter channel
[2] = measured here: RFP viability control channel

| Compound | AC50 [1] | AC50 [2] |
| --- | --- | --- |
| COC(=O)c1c(NC(=O)CN2CCCc3ccccc32)sc(C)c1C | 7.08 µM [rising, full curve, poor fit] | 11.2 µM [rising, partial curve] |
| COc1ccc(-c2n[nH]c(C)c2-c2ccc(OC)c(OC)c2)c(O)c1 | 17.8 µM [rising, single point] | 15.8 µM [rising, single point] |
| O=c1c(N2CCc3ccccc3C2)csc2ccccc12 | 11.2 µM [rising, partial curve, poor fit] | 35.5 µM [rising, single point] |
| COc1ccc(Cn2nnnc2C(C(C)C)N2CCN(c3ccccc3OC)CC2)cc1 (centres undefined) | – | 17.8 µM [rising, single point] |
| CC(=O)C1=NN(c2ccccc2)C(c2cccs2)N1c1ccc(N(C)C)cc1 (centres undefined) | – | 3.16 µM [rising, single point] |
| CC(C)(C)C(=O)Cn1c(=N)n(Cc2ccccc2)c2ccccc21 | 31.6 µM [rising, single point] | 31.6 µM [rising, single point] |
| CCOC(=O)c1c(Cc2ccc(Cl)cc2)c[nH]c1C | – | 15.8 µM [rising, single point] |
| Cc1onc(-c2ccccc2Cl)c1C(=O)N1CCc2ccccc2C1 | 22.4 µM [rising, single point] | 35.5 µM [rising, single point] |
| O=C(NC(c1ccc(Cl)cc1)c1c(O)ccc2ccccc12)c1ccccc1 (centres undefined) | 25.1 µM [falling, single point] | – |
| CCCOC1CCCN(C(=O)CCc2nnc(CCCCc3ccccc3)o2)C1 (centres undefined) | 1.26 µM [falling, full curve] | 0.0224 µM [falling, full curve, poor fit] |
| Cc1c(C(=O)OC2CCCC2)[nH]c2c1C(=O)CC(c1ccco1)C2 (centres undefined) | 3.16 µM [rising, single point] | 1.26 µM [rising, full curve] |
| COCCCNC(=O)c1ccc2c(=O)n(Cc3ccc(OC)cc3)c(=O)[nH]c2c1 | 0.447 µM [rising, full curve, poor fit] | – |
| CCOc1ccc(C(O)c2nccn2Cc2ccccc2)cc1 (centres undefined) | – | 35.5 µM [rising, single point] |
| COc1cc([N+](=O)[O-])ccc1NC(=S)NC(=O)CC(C)(C)C | 1.58 µM [rising, full curve, poor fit] | – |
| Cc1c(C(=O)NCc2cccs2)oc2ccc(Br)cc12 | – | 7.94 µM [rising, partial curve, poor fit] |
| CC(C)CC(c1nnnn1C1CCCCC1)N1CCN(c2ncccn2)CC1 (centres undefined) | – | 0.282 µM [falling, full curve, poor fit] |
| CSc1ccc2c(c1)C(N1CCN(C)CC1)Cc1ccccc1S2 (centres undefined) | 7.08 µM [falling, full curve, poor fit] | 178 nM [falling, full curve, poor fit] and 7.94 µM [falling, partial curve, poor fit] |
| CCCCN1C(=O)/C(=C/C=C2/CC(C)(C)CN2C)SC1=S | 20 µM [falling, partial curve] | – |
| O=C(Nc1ccc(OC(F)F)c(Cl)c1)Nc1ccc2c(c1)OCO2 | – | 14.1 µM [rising, single point] |
| Cc1ccc(S(=O)(=O)C(CNC(=O)c2ccccc2F)c2cccs2)cc1 (centres undefined) | 0.794 µM [rising, full curve] | – |
| Cc1sc(NC(=O)c2ccccc2)c(C(c2ccccn2)N2CCN(CCO)CC2)c1C (centres undefined) | – | 17.8 µM [rising, single point] |
| Cc1ccc(C(=O)N2CCCC(C(=O)c3ccc(Oc4ccccc4)cc3)C2)cn1 (centres undefined) | 3.98 µM [falling, full curve, poor fit] | 35.5 µM [falling, single point] |
| CC(C)Oc1ccc(Cc2n[nH]c(=S)n2Cc2ccccc2)cc1Cl | – | 10 µM [rising, partial curve, poor fit] |
| O=C(c1ccncc1)N(c1ccc2oc3c(c2c1)CCCC3)S(=O)(=O)c1cccc([N+](=O)[O-])c1 | – | 12.6 µM [rising, partial curve] |
| Cn1cnc([N+](=O)[O-])c1Oc1ccccc1 | – | 14.1 µM [rising, single point] |
| COc1ccc2[nH]cc(C(=O)CCl)c2c1 | – | 5.62 µM [falling, partial curve] |
| CC(=O)c1sc(NC(=O)c2cc(-c3ccccc3)nn2-c2ccccc2)nc1C | 7.08 µM [rising, partial curve] | 7.08 µM [rising, partial curve] |
| Cc1ccc(N(CCCCN2C(=O)c3ccccc3C2=O)C(=O)c2cccs2)cc1 | – | 11.2 µM [falling, partial curve, poor fit] |

| Compound | AC50 [1] | AC50 [2] |
| --- | --- | --- |
| Cn1c(=O)c2c(nc(NCc3ccc4c(c3)OCO4)n2Cc2ccccc2)n(C)c1=O | – | 35.5 µM [rising, single point] |
| O=C(NC(C(=O)N/N=C/c1cccc2ccccc12)c1n[nH]c(=O)c2ccccc12)c1ccccc1 (centres undefined) | 3.55 µM [rising, partial curve] | 3.55 µM [rising, single point] |
| COc1cc(/C=N/NC(=O)CN(Cc2ccccc2)S(=O)(=O)c2ccc3c(c2)OCCO3)ccc1O | – | 7.08 µM [rising, partial curve] |
| O=C(N/N=C/c1ccco1)c1ccccc1OCc1ccc(Br)cc1 | 11.2 µM [rising, partial curve, poor fit] | 17.8 µM [rising, single point] |
| O=C(Nc1nccs1)C1(c2ccc(Cl)cc2)CC1 | – | 1.26 µM [falling, full curve, poor fit] |
| COc1cccc(C(=O)/C=C2\Sc3ccccc3N2C)c1 | 35.5 µM [falling, partial curve, poor fit] | – |
| CC(=O)Oc1c(/C=C(\C#N)C(N)=O)[nH]c2ccccc12 | 31.6 µM [rising, single point] | – |
| CCC(O)CC(C(=O)NNc1ccccc1)C(=O)NNc1ccccc1 (centres undefined) | – | 4.47 µM [rising, full curve, poor fit] |
| Cc1cc(C)n(C(C)CC(=O)NCc2ccc(N(C)C)cc2)n1 (centres undefined) | 0.112 µM [falling, full curve, poor fit] | 0.282 µM [falling, partial curve, poor fit] |
| COc1ccc(NS(=O)(=O)c2ccc(NC(C)=O)cc2)cc1OC | 6.31 µM [rising, full curve, poor fit] | 10 µM [rising, partial curve] |
| COc1cc(Cl)c(C)cc1NC(=O)Cn1ncc2c([nH]c3ccccc32)c1=O | – | 0.0112 µM [falling, full curve, poor fit] |
| O=C(CSc1nc2cc(Cl)ccc2s1)Nc1cccc(S(=O)(=O)N2CCOCC2)c1 | – | 17.8 µM [rising, single point] |
| O=C(/C=C/c1cn(CC(O)CN2CCCCC2)c2ccccc12)c1cccs1 (centres undefined) | – | 14.1 µM [rising, partial curve] |
| COc1ccc(C(=O)c2oc3ccc(OC)cc3c2N)cc1 | – | 7.94 µM [rising, partial curve, poor fit] |
| Cn1c(=O)c2c(nc(N3CCCCC3)n2CCSc2nc3ccccc3s2)n(C)c1=O | 35.5 µM [rising, single point] | 35.5 µM [rising, single point] |
| COc1ccc(Oc2ncc3nc(-c4cc(F)cc(F)c4)c(=O)n(C[C@H]4CCCO4)c3n2)cc1 | 12.6 µM [falling, partial curve, poor fit] | – |
| Cc1cc(Nc2cccc(C(F)(F)F)c2)nc2ccc(NC(=O)c3ccc(=O)[nH]c3)cc12 | 11.2 µM [falling, partial curve] | 11.2 µM [falling, partial curve] |
| N#C/C(=C/c1ccc([N+](=O)[O-])cc1)C(=O)Nc1ccccc1O | – | 7.08 µM [rising, partial curve] |
| Cn1c(CN2CCN(C(=O)c3ccccc3)CC2)nc2cc([N+](=O)[O-])ccc21 | 10 µM [rising, single point] | 14.1 µM [rising, partial curve] |
| O=c1cc(-c2ccccc2)[nH]c2nc3ccccc3n12 | – | 1 µM [rising, full curve, poor fit] |
| Cc1ccc(S(=O)(=O)NCCC(=O)Nc2ccc(C)cc2C(=O)c2ccccc2)cc1 | – | 3.55 µM [rising, partial curve] |
| COc1ccc(C(=O)NC(=S)NNC(=O)c2c(-c3ccccc3)noc2C)cc1 | – | 12.6 µM [rising, partial curve] |
| O=C1C(Cl)=C(N2CCOCC2)C(=O)N1c1ccccc1 | 0.501 µM [falling, single point] | – |
| Nc1cccc(Nc2ccccc2)c1 | 2.82 µM [falling, partial curve, poor fit] | 5.62 µM [falling, partial curve, poor fit] |
| CC(C)CC(NC(=O)C1CCC(C)CC1)C(=O)Nc1ccccn1 (centres undefined) | – | 0.0631 µM [rising, full curve, poor fit] |
| O=C(c1ccco1)N1CCN(c2ncnc3c2[nH]c2ccccc23)CC1 | 12.6 µM [rising, partial curve] | 12.6 µM [rising, partial curve] |
| O=C(NCc1ccc(F)cc1)c1cc(S(=O)(=O)N2CCOCC2)ccc1F | – | 0.0316 µM [falling, full curve, poor fit] |

Single records, as listed above. Order of values: AC50 [1] | AC50 [2]
CCC(O)CC(C(=O)NNc1ccccc1)C(=O)NNc1ccccc1 (centres undefined) as listed: – | 4.47 µM [rising, full curve, poor fit]
N#C/C(=C/c1ccc([N+](=O)[O-])cc1)C(=O)Nc1ccccc1O as listed: – | 7.08 µM [rising, partial curve]
O=C(CSc1nc2cc(Cl)ccc2s1)Nc1cccc(S(=O)(=O)N2CCOCC2)c1 as listed: – | 17.8 µM [rising, single point]
Cc1ccc(S(=O)(=O)NCCC(=O)Nc2ccc(C)cc2C(=O)c2ccccc2)cc1 as listed: – | 3.55 µM [rising, partial curve]
